Measured values: PMC7948496
No constants are given. Whether binding was seen depends on the method and setting. In cells and extracts the contact can be indirect. Some results given as binding are weak or reduced against the parent protein; the word gives no strength. For part of these data: Tags and fused reporters may be left off the sequences shown.

Protein sequences, listed by entry. Tags and fused reporters are not part of them.
UniProt Q02248: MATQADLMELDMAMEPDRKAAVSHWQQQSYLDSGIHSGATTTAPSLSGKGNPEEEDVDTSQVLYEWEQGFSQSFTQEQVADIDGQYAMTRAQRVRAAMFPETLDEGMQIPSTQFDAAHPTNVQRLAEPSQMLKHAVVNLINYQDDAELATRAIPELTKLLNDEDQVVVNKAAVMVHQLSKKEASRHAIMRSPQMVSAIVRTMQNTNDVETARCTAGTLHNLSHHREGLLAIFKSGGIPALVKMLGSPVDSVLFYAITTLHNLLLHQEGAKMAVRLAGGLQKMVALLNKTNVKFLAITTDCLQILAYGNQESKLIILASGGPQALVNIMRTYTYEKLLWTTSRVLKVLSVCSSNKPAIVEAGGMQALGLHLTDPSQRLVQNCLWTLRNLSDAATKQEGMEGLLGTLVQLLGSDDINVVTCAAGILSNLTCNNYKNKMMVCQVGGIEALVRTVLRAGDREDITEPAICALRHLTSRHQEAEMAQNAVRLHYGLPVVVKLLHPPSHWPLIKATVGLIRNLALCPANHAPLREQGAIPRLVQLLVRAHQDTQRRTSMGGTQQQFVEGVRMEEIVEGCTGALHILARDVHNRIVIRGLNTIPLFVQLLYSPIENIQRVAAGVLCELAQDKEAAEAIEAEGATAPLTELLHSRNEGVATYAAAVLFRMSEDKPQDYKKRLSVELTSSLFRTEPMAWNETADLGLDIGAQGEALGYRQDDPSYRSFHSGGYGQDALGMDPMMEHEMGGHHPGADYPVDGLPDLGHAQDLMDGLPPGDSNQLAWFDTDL

Legend:
Experiment in all cases: co-IP; in HepG2, Huh-7 and Hepa1-6 cells; which protein was precipitated is not told; as described previously (ref. 38)
[1] = biological target: T1, TCF4, in HepG2 and Huh-7 cells (human (in HepG2 and Huh-7 cells; the plasmids too are of HepG2 cDNA)), Q9NQB0; details: remark: other sources report otherwise
T1 chain: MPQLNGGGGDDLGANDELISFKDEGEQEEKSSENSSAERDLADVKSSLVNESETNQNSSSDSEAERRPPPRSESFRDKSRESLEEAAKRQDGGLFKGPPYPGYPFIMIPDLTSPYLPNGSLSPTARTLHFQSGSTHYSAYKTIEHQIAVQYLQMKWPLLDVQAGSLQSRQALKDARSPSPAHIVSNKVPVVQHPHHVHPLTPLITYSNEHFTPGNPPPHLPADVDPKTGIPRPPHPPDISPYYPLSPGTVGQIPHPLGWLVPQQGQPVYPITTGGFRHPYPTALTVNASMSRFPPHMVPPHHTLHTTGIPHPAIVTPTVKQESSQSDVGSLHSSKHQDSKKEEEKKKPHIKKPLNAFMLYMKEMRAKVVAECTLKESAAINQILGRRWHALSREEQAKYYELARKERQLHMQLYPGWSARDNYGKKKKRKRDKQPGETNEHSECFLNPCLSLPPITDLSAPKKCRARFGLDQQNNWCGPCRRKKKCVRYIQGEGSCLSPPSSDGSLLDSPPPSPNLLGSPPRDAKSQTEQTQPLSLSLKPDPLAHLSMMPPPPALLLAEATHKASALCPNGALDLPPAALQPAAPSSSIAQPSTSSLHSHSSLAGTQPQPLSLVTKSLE

[2] = biological target: TCF4, in Hepa1-6 cells (not stated (mouse if endogenous in Hepa1-6; the paper's plasmids are of human HepG2 cDNA)) (UniProt Q924A0)
[3] = biological target: β-catenin, in Hepa1-6 cells (not stated (mouse if endogenous in Hepa1-6; the paper's plasmids are of human HepG2 cDNA)) (UniProt Q02248)

B1: Histone lysine demethylase 4D (JMJD2D), in HepG2 and Huh-7 cells, Q6B0I6 1-523 (enzyme)
chain: METMKSKANCAQNPNCNIMIFHPTKEEFNDFDKYIAYMESQGAHRAGLAKIIPPKEWKARETYDNISEILIATPLQQVASGRAGVFTQYHKKKKAMTVGEYRHLANSKKYQTPPHQNFEDLERKYWKNRIYNSPIYGADISGSLFDENTKQWNLGHLGTIQDLLEKECGVVIEGVNTPYLYFGMWKTTFAWHTEDMDLYSINYLHLGEPKTWYVVPPEHGQRLERLARELFPGSSRGCGAFLRHKVALISPTVLKENGIPFNRITQEAGEFMVTFPYGYHAGFNHGFNCAEAINFATPRWIDYGKMASQCSCGEARVTFSMDAFVRILQPERYDLWKRGQDRAVVDHMEPRVPASQELSTQKEVQLPRRAALGLRQLPSHWARHSPWPMAARSGTRCHTLVCSSLPRRSAVSGTATQPRAAAVHSSKKPSSTPSSTPGPSAQIIHPSNGRRGRGRPPQKLRAQELTLQTPAKRPLLAGTTCTASGPEPEPLPEDGALMDKPVPLSPGLQHPVKASGCSWAPVP
With B1 the binding [1] was “binds”.

B2: JMJD2D, in Hepa1-6 cells (enzyme, UniProt Q3U2K5 1-510)
chain: MKTKSTCAQNPNCSIMIFRPTKEEFNDFDKYIAYMESQGAHRAGLAKVIPPKEWRARQSYDNISNILIATPLQQVVSGQAGVFTQYHKKKKGMTVGEYRELANSKKYQTPPHLDFEDLERKYWKNRLYESPIYGADVSGSLFDGKTQQWNVGHLGTIQDLLEQECGIVIEGVNTPYLYFGMWKTTFAWHTEDMDLYSINYLHFGQPKTWYAVPPEHGRRLERLARELFPGSSQGCQAFLRHKVALISPTVLKENGIPFGRITQEAGEFMVTFPYGYHAGFNHGFNCAEAINFATPRWIDYGKVASQCSCGEARVSFSMDAFVRILQPERYELWKRGQDQAVVDHTETMVSTSQELTTRRVTKAPRKTWGLKRLRLRQVSRSLLPIATVSNVPCNMQVCHTSRQPSDVKGDDVQKSDSARASPHPLSLPSSGHMSTRRCSLGRRPCELGAQESSNGAPVKRQLPAGRDDTSPSPELQPQAVSGDLIVDSGLVNPGPQHLMTASEGGLTSDP
In the case of B2, the binding [2] is reported as “binds” and the binding [3] is reported as “binds”.
